According to PubChem BioAssay AID1487 (National Center for Advancing Translational Sciences (NCATS), 2009):
This is one part of the list. Shown are side measurements of this screen, not its main read-out; they come without a call. Most of these compounds were active or inconclusive in the main read-out, so they are no random draw. The note in brackets gives the kind of curve behind each potency; many fits are weak.

Experiment: qHTS Assay for Modulators of Lamin A Splicing
Details: HeLa LMNA splicing GFP/RFP minigene ratio, 48 h
Summary of the method: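 S3 HeLa stable clones carrying a lamin A-EGFP splicing minigene plus DsRed2 were seeded at 600 cells/well in Opti-MEM with 2% FBS, pin-dosed and incubated 48 h at 37°C. Acumen cytometry (488 nm) gave the GFP/RFP total-intensity ratio.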

[1] = measured here: RFP viability control channel
[2] = measured here: GFP splicing reporter channel

Row | SMILES | AC50 [1] | AC50 [2]
1 | COc1ccc(C2C=C(Nc3ccccc3)C(=O)N2c2ccccc2)cc1OC (configuration not stated) | 0.0891 µM [rising, full curve, poor fit] | 
2 | CC(O)c1n(C)c(Cl)c[n+]1C (configuration not stated) | 28.2 µM [falling, single point] | 
3 | CS(=O)(=O)c1cnc(-c2ccccc2)nc1-c1ccc(Cl)c(Cl)c1 | 20 µM [falling, single point] | 22.4 µM [falling, single point]
4 | Cn1c(=O)cc(OCCCC(=O)NCc2ccco2)c2ccccc21 | 12.6 µM [rising, single point] | 
5 | CC(C)(C)NC(=O)COC(=O)c1ccc(S(=O)(=O)N2CCCCCC2)cc1 | 0.178 µM [falling, full curve, poor fit] | 
6 | Cc1ccc(N2CCn3c2nc2c3c(=O)n(Cc3cccc(Cl)c3)c(=O)n2C)cc1C | 0.126 µM [falling, full curve, poor fit] | 0.794 µM [falling, full curve, poor fit]
7 | CC(C)c1ccc(NC(=O)CN2C(=O)C3(SCC(=O)N3c3ccc(F)cc3)c3ccccc32)cc1 (configuration not stated) |  | 1.78 µM [rising, partial curve]
8 | O=C(NCc1ccccn1)c1nc(-c2ccc(C(F)(F)F)cc2)no1 |  | 0.0794 µM [falling, full curve, poor fit]
9 | CCCOc1ccc(CC2C(=O)Nc3ccc(Br)cc32)cc1 (configuration not stated) | 25.1 µM [falling, single point] | 25.1 µM [falling, single point]
10 | O=C(Cn1nnc(-c2ccccc2)n1)N/N=C/c1cccc([N+](=O)[O-])c1 | 17.8 µM [rising, single point] | 12.6 µM [rising, single point]
11 | CC(C)CC(NC(=O)c1ccc(Cl)cc1)C(=O)OCC(=O)c1ccc2c(c1)NC(=O)CO2 (configuration not stated) | 22.4 µM [falling, partial curve] | 25.1 µM [falling, single point]
12 | CCN(C(=O)CSc1nc2ccccc2nc1Cc1ccccc1OC)c1ccccc1 | 22.4 µM [rising, partial curve] | 
13 | CCOc1ccccc1CNC(=O)CCc1cn(C)c2ccccc12 | 0.00316 µM [falling, full curve, poor fit] | 31.6 µM [falling, partial curve, poor fit]
14 | CCSC1=NC2(CCN(C(=O)NC3CCCCC3)CC2)N=C1c1ccc(OC)cc1 | 0.0112 µM [falling, full curve, poor fit] | 0.0112 µM [falling, full curve, poor fit]
15 | Cc1sc2nc(SCC(=O)NCCOCCO)n(C)c(=O)c2c1C | 15.8 µM [rising, single point] | 14.1 µM [rising, single point]
16 | COC(=O)c1ccc(CSc2nnc(C)n2N)o1 |  | 0.0251 µM [falling, full curve, poor fit]
17 | O=C(Cn1cnc2ccccc21)NCc1ccccc1 | 31.6 µM [rising, single point] | 
18 | COc1ccc(CN(C(=O)c2cc3ccccc3oc2=O)C2CCCCC2)cc1OC | 35.5 µM [rising, single point] | 

Taken from above.
`Cc1sc2nc(SCC(=O)NCCOCCO)n(C)c(=O)c2c1C` – AC50 [1]: 15.8 µM [rising, single point]
`CCN(C(=O)CSc1nc2ccccc2nc1Cc1ccccc1OC)c1ccccc1` – AC50 [1]: 22.4 µM [rising, partial curve]
`CCCOc1ccc(CC2C(=O)Nc3ccc(Br)cc32)cc1` (configuration not stated) – AC50 [1]: 25.1 µM [falling, single point]

(more compounds)

Row | SMILES | AC50 [1] | AC50 [2]
19 | Cc1cccc(N2CCN(C(=O)CS(=O)(=O)Cc3nc(-c4ccccc4F)oc3C)CC2C)c1 (configuration not stated) | 2.24 µM [rising, full curve, poor fit] | 
20 | COc1ccccc1CNc1ccc2nnc(CCNC(=O)c3ccc(C)cc3)n2n1 | 0.00316 µM [rising, full curve, poor fit] | 
21 | C[C@]1(OC(=O)/C=C\c2ccccc2)C[C@@H](O)[C@@]2(O)C=CO[C@@H](O[C@H]3O[C@@H](CO)[C@@H](O)[C@@H](O)[C@@H]3O)[C@H]21 |  | 14.1 µM [falling, single point]
22 | CCCCOc1ccc(/C=C/C(=O)OCC(=O)N2CC(=O)Nc3ccccc32)cc1OCC | 10 µM [rising, single point] | 
23 | Cc1ccsc1/C=N/n1c(-c2ccncc2)n[nH]c1=S | 28.2 µM [rising, single point] | 3.98 µM [rising, partial curve, poor fit]
24 | Oc1cccc(/C=N/Nc2cc(N3CCCC3)nc(N3CCCC3)n2)c1 | 12.6 µM [rising, partial curve, poor fit] | 
25 | Cc1ccc(NC(=O)C2CCC(CNS(=O)(=O)c3cccs3)CC2)cc1C (configuration not stated) | 0.0447 µM [falling, full curve] | 
26 | NS(=O)(=O)c1ccc(NS(=O)(=O)/C=C/c2ccccc2)cc1 | 12.6 µM [rising, single point] | 
27 | CC(=O)N1CCc2ccc(S(=O)(=O)N3CC(C)OC(C)C3)cc21 (configuration not stated) | 17.8 µM [rising, partial curve, poor fit] | 
28 | Cc1cc(C)c(S(=O)(=O)NCC(c2ccco2)S(=O)(=O)c2ccccc2)c(C)c1 (configuration not stated) |  | 0.00316 µM [rising, full curve, poor fit]
29 | COC(=O)c1cc(NC(=S)NCc2ccc(Cl)cc2)cc(C(=O)OC)c1 | 17.8 µM [rising, partial curve] | 12.6 µM [rising, single point]
30 | CCCCn1c(SCC(=O)Nc2ccc3c(c2)OCO3)nc2c1c(=O)n(C)c(=O)n2C | 11.2 µM [rising, partial curve] | 3.98 µM [rising, full curve]
31 | Cn1cnnc1SCCOc1ccc(Cl)cc1 | 0.0398 µM [falling, full curve] | 
32 | COc1ccccc1C(=O)O/N=C(/c1ccncc1)c1ccc([N+](=O)[O-])cc1 |  | 14.1 µM [rising, partial curve]
33 | CCOc1ccccc1C(=O)N[C@H](C(=O)NCc1ccccc1)C(C)C | 2.82 µM [falling, single point] | 
34 | Cc1cccc(C(=O)NC(=S)NCc2cccnc2)c1 | 0.2 µM [rising, full curve, poor fit] | 4.47 µM [rising, partial curve, poor fit]
35 | C=CCc1c(C)nc(SC)nc1Nc1ccc(C(C)=O)cc1 | 11.2 µM [rising, single point] | 
